Experimental data: PubChem BioAssay AID504764 (Drosophila RNAi Screening Center, 2011)

Aim: 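Knock-downs that raise or lower a Notch target reporter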 (primary screen)
Cells: Drosophila Kc167 cells
Reagents: long dsRNA against Drosophila genes
Timing: about 5 days (4 days dsRNA, then 24 h after transfection)
Treatment: transfection of constitutively active membrane-tethered Notch lacking the extracellular domain, read 24 h later
Measured: 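Light from a Notch-responsive E(spl)m3 luciferase reporter under active Notch, with control-promoter and no-Notch reporter wells to normalise; raw counts from paired wells a and b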
Reading the numbers: induced reporter light, run 1, well a and induced reporter light, run 1, well b: higher = more light from the Notch target reporter with active Notch; control promoter light, run 1, well a and control promoter light, run 1, well b: higher = more light from the viral control promoter (cell number, transfection, viability); uninduced reporter light, run 1, well a: higher = more light from the Notch target reporter without active Notch
Active means: 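Wells with low control signal or poorly matching duplicates excluded; duplicates averaged; per source plate, z beyond ±2 for induced/control log2 ratio or beyond ±1.8 for induced/uninduced marks a hit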
Calls: active = modifier hit (raised or lowered Notch signal); inactive = not a hit
In all, the deposit lists about 22,000 reagents; below is a random part of those with a known target gene and a result. Of all reagents, 403 (1.9%) were called active. 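Unnormalised raw counts per well; ratio z-scores behind the hit calls and whether each hit raises or lowers signal are not deposited.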 A number with no mark means an inactive call. Not given: the amount of reagent.

no.	gene knocked down	dsRNA	induced reporter light, run 1, well a	induced reporter light, run 1, well b	control promoter light, run 1, well a	control promoter light, run 1, well b	uninduced reporter light, run 1, well a
1	CycK	DRSC03714	73910	66020	40920	41455	5375
2	CG6607	DRSC16073	1.37e5	1.27e5	1.47e5	1.41e5	10210
3	dhd	DRSC18761	2.31e5	1.70e5	2.33e5	2.11e5	14910
4	CG7367	DRSC03049	1.41e5	1.99e5	97650	1.13e5	22650
5	crb	DRSC16927	1.10e5	1.27e5	1.35e5	1.41e5	10365
6	CG13681 (retired record)	DRSC08906	2.17e5	2.11e5	2.77e5	2.45e5	12260
7	CG13681 (retired record)	DRSC08907	2.38e5	2.21e5	2.95e5	3.40e5	18305
8	CG13681 (retired record)	DRSC10038	2.22e5	2.61e5	2.80e5	2.75e5	9400
9	CG13681 (retired record)	DRSC10039	1.69e5	1.57e5	1.91e5	1.71e5	19015
10	CG13681 (retired record)	DRSC10927	2.07e5	2.10e5	3.06e5	1.89e5	10170
11	CG13681 (retired record)	DRSC10929	1.09e5	1.06e5	75015	53815	10410
12	Vang	DRSC07570	1.37e5	1.92e5	1.58e5	1.59e5	15985
13	Cenp-C	DRSC14371	90620	1.04e5	70840	62060	5650
14	Syx7	DRSC11763	1.14e5	1.83e5	1.07e5	1.33e5	12015
15	CG31735	DRSC01518	89700	71700	79850	66820	7240
16	CG14495	DRSC06466	1.49e5	1.29e5	1.86e5	1.45e5	9165
17	norpA	DRSC18806	1.31e5	1.48e5	1.86e5	1.87e5	8490
18	CG8245	DRSC04901	1.21e5	1.29e5	1.42e5	1.41e5	9695
19	CG33467	DRSC05525	1.82e5	1.80e5	2.22e5	2.01e5	13380
20	Nup214	DRSC04421	99955	90120	57805	62210	6640
21	AP-2alpha	DRSC00800	57300	66785	49370	39225	5790
22	RpS2	DRSC03614	14155	14475	12975	12030	868
23	red	DRSC14477	13645	13965	9250	8600	6265
24	CG33325	DRSC12699	1.42e5	1.31e5	1.71e5	1.80e5	14235
25	CdGAPr	DRSC03289	68680	54320	53755	88880	3875
26	CG13051	DRSC09932	2.67e5	2.46e5	3.00e5	2.09e5	9075
27	CG12106	DRSC17805	1.59e5	1.77e5	2.39e5	2.10e5	15232
28	CG2021	DRSC08546	1.30e5	1.12e5	2.19e5	1.36e5	4328
29	SamDC	DRSC03429	2.03e5	1.74e5	1.68e5	1.61e5	17470
30	Cad74A	DRSC10636	1.80e5	1.44e5	2.29e5	2.17e5	6220
31	pim	DRSC03591	2.03e5	1.66e5	1.74e5	1.79e5	15550
32	CG7968	DRSC01903	1.41e5	1.64e5	1.71e5	1.74e5	12635
33	CG9757	DRSC16557	2.01e5	2.15e5	1.78e5	2.11e5	16370
34	Ccz1	DRSC08439	1.26e5	1.21e5	2.00e5	1.84e5	6545
35	fz3	DRSC18779	1.19e5	1.28e5	1.65e5	1.90e5	8045
36	Clp	DRSC00746	1.18e5	84050	65225	38305	6045
37	hep	DRSC19839	89390	90490	1.85e5	1.93e5	7860
38	hep	DRSC20337	1.32e5	1.15e5	3.28e5	2.66e5	10010
39	Ire1	DRSC15606	2.00e5	1.92e5	2.21e5	2.00e5	11840
40	CG13135	DRSC02232	1.07e5	1.21e5	72625	1.11e5	14400
41	Smvt	DRSC15426	1.17e5	1.36e5	1.99e5	2.29e5	10665
42	fest	DRSC07349	67715	75755	66235	57935	6900
43	Kyat	DRSC16147	1.09e5	1.14e5	1.08e5	81155	13405
44	NaPi-T	DRSC07476	84100	91650	1.29e5	1.35e5	8920
45	CG34309	DRSC14838	2.20e5	2.21e5	1.88e5	2.02e5	16050
46	CG7208	DRSC16212	2.15e5	1.88e5	2.25e5	2.33e5	13245
47	CG12107	DRSC06102	2.63e5	2.07e5	2.17e5	2.51e5	16095
48	grau	DRSC04691	35040	23565	31095	27715	1680
49	CG7872	DRSC20062	98585	1.19e5	1.25e5	1.35e5	9040
50	Ugt37C2	DRSC02247	1.45e5	1.31e5	1.38e5	1.37e5	11415
